# This is one part of the list.
# Chains of the proteins cited; added tags and fusions are not shown. Lines headed by an entry give the natural chain unless they say otherwise; changes in a name come on top.
# UniProt Q8N2W9: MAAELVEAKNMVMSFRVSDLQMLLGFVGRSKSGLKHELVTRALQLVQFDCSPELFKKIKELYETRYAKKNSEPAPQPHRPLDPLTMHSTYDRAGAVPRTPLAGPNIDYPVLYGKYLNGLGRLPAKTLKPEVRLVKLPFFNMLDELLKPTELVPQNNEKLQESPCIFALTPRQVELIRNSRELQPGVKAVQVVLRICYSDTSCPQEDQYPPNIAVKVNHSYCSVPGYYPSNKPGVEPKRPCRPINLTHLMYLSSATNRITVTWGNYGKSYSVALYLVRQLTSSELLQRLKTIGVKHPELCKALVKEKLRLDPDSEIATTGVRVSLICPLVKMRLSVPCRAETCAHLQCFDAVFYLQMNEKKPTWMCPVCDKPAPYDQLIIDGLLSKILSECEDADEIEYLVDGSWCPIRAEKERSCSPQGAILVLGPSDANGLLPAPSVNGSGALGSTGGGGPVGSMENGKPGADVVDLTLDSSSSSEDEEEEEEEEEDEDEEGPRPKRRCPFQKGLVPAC
# UniProt O60331: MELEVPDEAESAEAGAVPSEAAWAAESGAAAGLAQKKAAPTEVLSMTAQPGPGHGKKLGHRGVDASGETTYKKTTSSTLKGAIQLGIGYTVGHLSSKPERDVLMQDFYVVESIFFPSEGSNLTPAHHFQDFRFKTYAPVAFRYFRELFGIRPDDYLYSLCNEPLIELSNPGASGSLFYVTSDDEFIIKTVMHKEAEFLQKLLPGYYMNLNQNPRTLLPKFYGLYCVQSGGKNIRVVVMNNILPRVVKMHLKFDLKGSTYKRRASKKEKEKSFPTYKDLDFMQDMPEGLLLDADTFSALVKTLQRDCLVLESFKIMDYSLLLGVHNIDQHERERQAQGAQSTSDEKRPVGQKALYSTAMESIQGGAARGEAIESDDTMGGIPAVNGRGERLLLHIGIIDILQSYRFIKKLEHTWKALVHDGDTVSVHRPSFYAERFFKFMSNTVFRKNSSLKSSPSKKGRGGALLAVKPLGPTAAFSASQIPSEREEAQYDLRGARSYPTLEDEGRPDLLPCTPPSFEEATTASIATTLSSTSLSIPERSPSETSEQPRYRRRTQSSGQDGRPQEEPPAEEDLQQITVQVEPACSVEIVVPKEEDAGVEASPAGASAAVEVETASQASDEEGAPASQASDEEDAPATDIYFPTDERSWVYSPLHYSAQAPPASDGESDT
# UniProt Q96BK5: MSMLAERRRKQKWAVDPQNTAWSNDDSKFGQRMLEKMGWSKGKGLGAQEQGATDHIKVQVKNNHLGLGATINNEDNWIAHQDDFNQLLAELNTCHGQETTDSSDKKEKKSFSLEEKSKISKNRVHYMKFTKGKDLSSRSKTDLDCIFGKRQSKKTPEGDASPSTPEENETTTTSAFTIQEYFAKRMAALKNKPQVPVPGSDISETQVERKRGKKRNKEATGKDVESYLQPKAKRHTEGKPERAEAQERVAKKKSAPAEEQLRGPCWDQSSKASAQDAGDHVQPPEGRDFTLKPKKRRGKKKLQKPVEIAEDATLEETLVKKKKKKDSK
# UniProt Q7Z412: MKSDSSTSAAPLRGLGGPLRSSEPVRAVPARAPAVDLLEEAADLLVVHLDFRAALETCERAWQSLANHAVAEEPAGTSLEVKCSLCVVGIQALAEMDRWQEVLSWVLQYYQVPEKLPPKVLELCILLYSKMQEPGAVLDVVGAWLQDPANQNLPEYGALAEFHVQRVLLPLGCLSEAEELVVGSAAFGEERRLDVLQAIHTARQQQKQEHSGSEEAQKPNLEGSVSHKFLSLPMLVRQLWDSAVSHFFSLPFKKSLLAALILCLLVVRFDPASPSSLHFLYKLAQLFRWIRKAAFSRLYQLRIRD
# UniProt Q8IUZ5: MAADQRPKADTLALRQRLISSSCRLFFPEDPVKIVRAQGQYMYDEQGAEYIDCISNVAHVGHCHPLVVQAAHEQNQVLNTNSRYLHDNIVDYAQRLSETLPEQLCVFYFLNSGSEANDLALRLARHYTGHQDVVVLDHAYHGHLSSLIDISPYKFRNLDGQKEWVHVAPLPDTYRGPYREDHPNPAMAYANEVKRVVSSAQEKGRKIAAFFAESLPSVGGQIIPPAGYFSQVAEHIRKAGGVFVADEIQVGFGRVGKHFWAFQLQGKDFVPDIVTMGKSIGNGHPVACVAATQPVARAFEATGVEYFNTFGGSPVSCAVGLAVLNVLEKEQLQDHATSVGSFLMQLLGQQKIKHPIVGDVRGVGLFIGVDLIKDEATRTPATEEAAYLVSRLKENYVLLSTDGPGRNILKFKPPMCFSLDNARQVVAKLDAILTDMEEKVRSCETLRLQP
# UniProt Q16513: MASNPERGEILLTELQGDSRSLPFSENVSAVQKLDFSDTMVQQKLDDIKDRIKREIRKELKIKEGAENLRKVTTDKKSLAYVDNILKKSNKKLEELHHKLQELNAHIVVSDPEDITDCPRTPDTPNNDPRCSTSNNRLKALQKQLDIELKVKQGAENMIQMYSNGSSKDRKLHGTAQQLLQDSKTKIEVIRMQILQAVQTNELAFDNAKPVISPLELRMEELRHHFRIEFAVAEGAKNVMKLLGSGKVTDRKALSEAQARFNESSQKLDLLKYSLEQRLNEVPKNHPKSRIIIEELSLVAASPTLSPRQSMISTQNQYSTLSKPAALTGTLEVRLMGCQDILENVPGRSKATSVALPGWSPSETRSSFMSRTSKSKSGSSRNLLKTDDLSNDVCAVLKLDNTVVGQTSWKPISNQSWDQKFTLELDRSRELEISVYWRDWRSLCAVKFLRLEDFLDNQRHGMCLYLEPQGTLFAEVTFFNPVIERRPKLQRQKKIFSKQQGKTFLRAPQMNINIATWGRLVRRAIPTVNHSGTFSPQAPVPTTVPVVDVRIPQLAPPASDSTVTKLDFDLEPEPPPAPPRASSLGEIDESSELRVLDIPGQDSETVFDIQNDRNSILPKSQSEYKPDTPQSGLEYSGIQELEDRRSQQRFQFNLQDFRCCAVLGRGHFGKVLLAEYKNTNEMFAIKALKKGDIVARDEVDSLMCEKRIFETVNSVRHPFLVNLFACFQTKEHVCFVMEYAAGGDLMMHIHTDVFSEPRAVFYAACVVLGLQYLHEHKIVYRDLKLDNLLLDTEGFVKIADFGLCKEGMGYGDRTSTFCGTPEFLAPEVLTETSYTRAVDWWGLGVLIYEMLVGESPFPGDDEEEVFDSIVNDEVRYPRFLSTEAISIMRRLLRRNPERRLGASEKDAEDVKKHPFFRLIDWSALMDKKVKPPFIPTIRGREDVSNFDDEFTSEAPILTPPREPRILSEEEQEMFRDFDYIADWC
# UniProt Q8N2A8: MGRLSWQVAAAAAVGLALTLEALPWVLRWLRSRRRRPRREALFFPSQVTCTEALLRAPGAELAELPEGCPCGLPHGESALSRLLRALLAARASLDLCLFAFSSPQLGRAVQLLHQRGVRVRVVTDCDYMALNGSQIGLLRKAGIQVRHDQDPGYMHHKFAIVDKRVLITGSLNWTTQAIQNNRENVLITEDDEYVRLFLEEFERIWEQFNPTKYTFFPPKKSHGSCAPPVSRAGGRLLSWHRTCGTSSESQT
# UniProt Q9UBF8: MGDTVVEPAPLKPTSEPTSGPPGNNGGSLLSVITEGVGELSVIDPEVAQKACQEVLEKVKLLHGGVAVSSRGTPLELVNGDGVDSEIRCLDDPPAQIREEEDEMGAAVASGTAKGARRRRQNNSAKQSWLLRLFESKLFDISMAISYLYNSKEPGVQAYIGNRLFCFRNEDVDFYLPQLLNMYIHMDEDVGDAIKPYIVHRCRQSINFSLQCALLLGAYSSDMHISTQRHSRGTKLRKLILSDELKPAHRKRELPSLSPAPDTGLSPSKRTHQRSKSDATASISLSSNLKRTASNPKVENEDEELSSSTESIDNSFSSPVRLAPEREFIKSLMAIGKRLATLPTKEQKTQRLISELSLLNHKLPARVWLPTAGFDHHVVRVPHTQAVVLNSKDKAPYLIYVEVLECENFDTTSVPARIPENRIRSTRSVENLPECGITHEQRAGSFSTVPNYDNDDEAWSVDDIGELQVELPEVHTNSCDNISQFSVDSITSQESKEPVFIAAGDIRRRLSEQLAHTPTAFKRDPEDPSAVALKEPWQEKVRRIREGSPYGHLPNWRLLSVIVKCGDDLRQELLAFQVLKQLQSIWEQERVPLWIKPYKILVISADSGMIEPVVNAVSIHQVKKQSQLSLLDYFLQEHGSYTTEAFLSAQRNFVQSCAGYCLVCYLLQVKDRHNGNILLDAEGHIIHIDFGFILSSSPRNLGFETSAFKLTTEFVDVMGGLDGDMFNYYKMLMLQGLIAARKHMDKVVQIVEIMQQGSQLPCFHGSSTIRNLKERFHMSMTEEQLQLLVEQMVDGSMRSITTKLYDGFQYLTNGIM
# UniProt Q8TBF5: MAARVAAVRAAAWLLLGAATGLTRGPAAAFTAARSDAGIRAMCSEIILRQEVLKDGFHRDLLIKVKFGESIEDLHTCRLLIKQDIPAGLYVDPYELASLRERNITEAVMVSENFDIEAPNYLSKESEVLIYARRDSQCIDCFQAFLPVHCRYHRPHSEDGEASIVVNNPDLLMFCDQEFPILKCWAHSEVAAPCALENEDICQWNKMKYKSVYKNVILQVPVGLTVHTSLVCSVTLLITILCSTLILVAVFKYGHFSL
# UniProt Q8N4B1: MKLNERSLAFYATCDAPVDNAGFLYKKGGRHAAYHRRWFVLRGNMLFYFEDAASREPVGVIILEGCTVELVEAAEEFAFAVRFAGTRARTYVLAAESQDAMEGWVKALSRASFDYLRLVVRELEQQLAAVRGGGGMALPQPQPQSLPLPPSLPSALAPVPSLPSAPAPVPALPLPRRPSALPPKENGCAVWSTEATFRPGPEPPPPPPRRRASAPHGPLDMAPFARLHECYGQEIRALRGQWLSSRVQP
# UniProt P36871: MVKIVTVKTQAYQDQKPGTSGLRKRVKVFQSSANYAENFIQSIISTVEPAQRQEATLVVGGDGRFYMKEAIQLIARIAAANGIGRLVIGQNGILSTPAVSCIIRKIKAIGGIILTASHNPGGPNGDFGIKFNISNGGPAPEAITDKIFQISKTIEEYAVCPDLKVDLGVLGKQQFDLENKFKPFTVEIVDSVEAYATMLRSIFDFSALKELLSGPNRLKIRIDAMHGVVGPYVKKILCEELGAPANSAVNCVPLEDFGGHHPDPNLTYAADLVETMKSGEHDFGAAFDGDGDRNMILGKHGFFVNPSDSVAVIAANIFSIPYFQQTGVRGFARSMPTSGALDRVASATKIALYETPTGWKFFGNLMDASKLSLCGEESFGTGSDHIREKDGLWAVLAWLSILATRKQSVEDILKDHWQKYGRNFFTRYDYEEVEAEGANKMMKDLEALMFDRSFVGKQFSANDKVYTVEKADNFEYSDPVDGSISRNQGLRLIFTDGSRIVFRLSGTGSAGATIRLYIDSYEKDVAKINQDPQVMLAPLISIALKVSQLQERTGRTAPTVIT
# UniProt Q99640: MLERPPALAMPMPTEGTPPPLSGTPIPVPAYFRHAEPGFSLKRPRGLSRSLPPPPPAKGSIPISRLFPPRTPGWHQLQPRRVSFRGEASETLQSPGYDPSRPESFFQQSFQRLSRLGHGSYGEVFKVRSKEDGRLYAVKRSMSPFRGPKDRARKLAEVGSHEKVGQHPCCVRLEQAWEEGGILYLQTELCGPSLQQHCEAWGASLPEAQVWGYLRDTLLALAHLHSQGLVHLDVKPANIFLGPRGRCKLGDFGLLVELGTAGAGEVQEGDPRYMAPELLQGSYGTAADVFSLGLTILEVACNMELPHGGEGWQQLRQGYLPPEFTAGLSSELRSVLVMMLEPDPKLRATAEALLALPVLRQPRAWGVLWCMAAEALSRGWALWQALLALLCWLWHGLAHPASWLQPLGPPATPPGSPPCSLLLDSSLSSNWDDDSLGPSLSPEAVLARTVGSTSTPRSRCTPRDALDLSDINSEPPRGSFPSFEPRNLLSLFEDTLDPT
# UniProt O75925, whole entry, looked up: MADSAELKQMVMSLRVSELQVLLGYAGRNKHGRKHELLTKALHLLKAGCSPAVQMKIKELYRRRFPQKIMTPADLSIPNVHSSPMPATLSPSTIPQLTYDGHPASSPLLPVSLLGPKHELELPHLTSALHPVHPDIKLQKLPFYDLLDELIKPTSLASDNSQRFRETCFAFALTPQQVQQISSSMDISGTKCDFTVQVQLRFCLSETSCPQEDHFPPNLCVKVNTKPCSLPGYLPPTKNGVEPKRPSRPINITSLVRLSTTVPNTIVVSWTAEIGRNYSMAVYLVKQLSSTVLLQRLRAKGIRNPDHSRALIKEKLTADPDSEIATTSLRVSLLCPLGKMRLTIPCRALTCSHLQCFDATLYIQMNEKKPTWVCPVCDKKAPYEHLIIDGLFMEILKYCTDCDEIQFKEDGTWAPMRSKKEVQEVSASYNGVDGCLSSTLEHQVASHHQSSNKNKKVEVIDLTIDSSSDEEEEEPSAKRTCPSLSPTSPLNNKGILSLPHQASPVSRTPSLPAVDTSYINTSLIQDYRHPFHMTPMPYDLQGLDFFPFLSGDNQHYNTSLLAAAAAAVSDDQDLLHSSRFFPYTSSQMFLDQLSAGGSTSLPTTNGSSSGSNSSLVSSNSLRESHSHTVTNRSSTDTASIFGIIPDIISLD
# How the values were obtained:
# Experiment in all cases: log2 fold change, soluble protein after heating vs DMSO (PISA); higher = thermal stabilisation; K562 cells, 10 uM, 30 min; active = over 0.2 and 3.5 SD of the protein, either way, in both replicates (recomputed)
# epoxomicin = compound: CC[C@H](C)[C@@H](C(=O)N[C@@H]([C@@H](C)O)C(=O)N[C@@H](CC(C)C)C(=O)[C@]1(CO1)C)NC(=O)[C@H]([C@@H](C)CC)N(C)C(=O)C [epoxomicin]
# Outline: (§1)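 K562 cells at 2×10^6 cells/mL were given 10 μM compound for 30 min. Aliquots then went through 3 min of heating across 48°C-58°C, were pooled, and were extracted in PBS with 0.5% NP-40 at 4°C, and the supernatant after 21,000xg for 90 min was quantified by TMTpro 16plex LC-MS/MS with channel sums equalised. Thermal stability relative to control samples, from duplicates, is given as log2 fold change.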
# [1] = compound: CN1C2=C(C3=C1C(=O)N(N=C3)CC4=CC(=CC=C4)N)SC(=C2)S(=O)C
# Outline: as §1
# [2] = compound: CC[C@H](C)N1C=C(C2=C(C=C(C=C21)C3=CN=C(C=C3)N4CCNCC4)C(=O)NCC5=C(C=C(NC5=O)C)C)C
# Outline: as §1
# [3] = compound: CCn1c(C(=O)N(C2CC2)C2CC2)cc2c3c(ncn3C)c(Nc3cc(C)n(C)n3)nc21
# Outline: as §1
# rosiglitazone = compound: CN(CCOC1=CC=C(C=C1)C[C@H]2C(=O)NC(=O)S2)C3=CC=CC=N3 (racemic) [rosiglitazone]
# Outline: as §1
# [4] = compound: CCn1cc(-c2ccnc3[nH]c(-c4cccc(CN(C)C)c4)cc23)c(-c2ccc(NC(=O)N(C)C)cc2)n1
# Outline: as §1
# [5] = compound: CN(C)CC(=O)Nc1ccc2[nH]c(=O)c3ccccc3c2c1
# Outline: as §1
# [6] = compound: CN1CCC(CNc2ccc3ncc(-c4cccc(OC(F)(F)F)c4)n3n2)CC1
# Outline: as §1
# volasertib = compound: CC[C@@H]1C(=O)N(C)c2cnc(Nc3ccc(C(=O)N[C@H]4CC[C@H](N5CCN(CC6CC6)CC5)CC4)cc3OC)nc2N1C(C)C [volasertib]
# Outline: as §1
# [7] = compound: CC[C@@H]1C(=O)N(C)c2cnc(Nc3ccc(C(=O)NC4CCN(C)CC4)cc3OC)nc2N1C1CCCC1
# Outline: as §1
target,measurement,setting,value
PHLPP1 (UniProt O60346),log2 fold change,epoxomicin,inactive: 0.129
same,log2 fold change,[1],inactive: 0.185
PIK3CA (UniProt P42336),log2 fold change,[2],inactive: 0.151
same,log2 fold change,epoxomicin,inactive: -0.053
same,log2 fold change,[3],inactive: -0.019
same,log2 fold change,rosiglitazone,inactive: -0.001
PHF14 (UniProt O94880),log2 fold change,[4],inactive: 0
same,log2 fold change,[5],inactive: 0.088
same,log2 fold change,[1],inactive: 0.091
same,log2 fold change,[6],inactive: 0.1
PIAS4 (UniProt Q8N2W9),log2 fold change,volasertib,inactive: -0.406
same,log2 fold change,epoxomicin,inactive: 0.11
same,log2 fold change,[4],inactive: -0.064
same,log2 fold change,[1],inactive: 0.173
same,log2 fold change,[6],inactive: 0.062
PI4K2B (UniProt Q8TCG2),log2 fold change,[7],inactive: -0.147
same,log2 fold change,[2],inactive: -0.039
same,log2 fold change,[4],inactive: 0.045
same,log2 fold change,[5],inactive: -0.024
same,log2 fold change,[1],inactive: 0.079
same,log2 fold change,[6],inactive: -0.1
PHOSPHO2 (UniProt Q8TCD6),log2 fold change,[3],inactive: 0.017
same,log2 fold change,[5],inactive: -0.022
same,log2 fold change,rosiglitazone,inactive: -0.032
same,log2 fold change,[1],inactive: -0.06
PIP5K1C isoform 3 (UniProt O60331),log2 fold change,epoxomicin,inactive: -0.046
same,log2 fold change,[3],inactive: -0.183
same,log2 fold change,[4],inactive: -0.102
same,log2 fold change,rosiglitazone,inactive: 0.139
same,log2 fold change,[1],inactive: -0.046
same,log2 fold change,[6],inactive: -0.469
PIBF1 (UniProt Q8WXW3),log2 fold change,[3],inactive: -0.051
same,log2 fold change,rosiglitazone,inactive: -0.052
same,log2 fold change,[1],inactive: 0.534
PKP4 (UniProt Q99569),log2 fold change,[7],inactive: -0.234
same,log2 fold change,epoxomicin,inactive: -0.034
same,log2 fold change,[3],inactive: 0.265
PINX1 (UniProt Q96BK5),log2 fold change,volasertib,inactive: 0.37
same,log2 fold change,[2],inactive: 0.05
same,log2 fold change,epoxomicin,inactive: -0.167
same,log2 fold change,[3],inactive: 0.032
same,log2 fold change,[4],inactive: 0.358
same,log2 fold change,[5],inactive: -0.159
same,log2 fold change,rosiglitazone,inactive: -0.419
same,log2 fold change,[1],inactive: 0.337
same,log2 fold change,[6],inactive: 0.406
PEX26 (UniProt Q7Z412),log2 fold change,volasertib,inactive: -0.087
same,log2 fold change,[2],inactive: 0.058
same,log2 fold change,epoxomicin,inactive: 0.103
same,log2 fold change,[3],inactive: -0.086
same,log2 fold change,[4],inactive: -0.034
same,log2 fold change,[5],inactive: -0.136
same,log2 fold change,[1],inactive: -0.103
same,log2 fold change,[6],inactive: 0.067
PHYKPL (UniProt Q8IUZ5),log2 fold change,volasertib,inactive: 0.017
same,log2 fold change,[2],inactive: 0.077
same,log2 fold change,epoxomicin,inactive: -0.155
same,log2 fold change,[3],inactive: -0.035
same,log2 fold change,[4],inactive: 0.067
same,log2 fold change,[1],inactive: -0.219
same,log2 fold change,[6],inactive: -0.152
PLCG2 (UniProt P16885),log2 fold change,[7],inactive: 0.04
same,log2 fold change,[3],inactive: -0.06
same,log2 fold change,rosiglitazone,inactive: 0.06
PKN2 (UniProt Q16513),log2 fold change,volasertib,inactive: -0.135
same,log2 fold change,[2],inactive: 0.159
same,log2 fold change,epoxomicin,inactive: -0.027
same,log2 fold change,[4],inactive: -0.046
same,log2 fold change,[5],inactive: 0.009
same,log2 fold change,[1],inactive: 0.027
same,log2 fold change,[6],active: -0.288
PLEKHA5 isoform 6 (UniProt Q9HAU0),log2 fold change,[7],inactive: -0.13
same,log2 fold change,epoxomicin,inactive: -0.095
same,log2 fold change,[3],inactive: -0.042
same,log2 fold change,[4],inactive: 0.05
same,log2 fold change,[5],inactive: -0.092
same,log2 fold change,[6],inactive: -0.114
PLD6 (UniProt Q8N2A8),log2 fold change,volasertib,inactive: 0.075
same,log2 fold change,epoxomicin,inactive: -0.023
same,log2 fold change,[5],inactive: 0.051
PFKM (UniProt F8VTQ3),log2 fold change,volasertib,inactive: -0.292
same,log2 fold change,[4],inactive: 0.123
same,log2 fold change,rosiglitazone,inactive: 0.176
same,log2 fold change,[6],inactive: 0.057
PGD (UniProt K7EM49),log2 fold change,volasertib,inactive: 0.108
same,log2 fold change,epoxomicin,inactive: -0.197
same,log2 fold change,[4],inactive: -0.336
same,log2 fold change,[5],inactive: -0.124
same,log2 fold change,rosiglitazone,inactive: -0.043
same,log2 fold change,[6],inactive: -0.3
PLEK (UniProt P08567),log2 fold change,volasertib,inactive: -0.03
same,log2 fold change,[3],inactive: 0.079
same,log2 fold change,[5],inactive: -0.297
PHC2 isoform 5 (UniProt Q8IXK0),log2 fold change,[7],inactive: 0.059
same,log2 fold change,epoxomicin,inactive: -0.233
same,log2 fold change,[5],inactive: 0.025
same,log2 fold change,rosiglitazone,inactive: -0.153
same,log2 fold change,[1],inactive: 0.234
PI4KB isoform 2 (UniProt Q9UBF8),log2 fold change,[7],inactive: 0.096
same,log2 fold change,[3],inactive: 0.017
same,log2 fold change,[4],inactive: 0.002
same,log2 fold change,[6],inactive: -0.015
PKHD1 (UniProt P08F94),log2 fold change,[7],inactive: 0.066
same,log2 fold change,[5],inactive: -0.062
PIGO (UniProt Q8TEQ8),log2 fold change,[2],inactive: -0.051
same,log2 fold change,epoxomicin,inactive: 0
same,log2 fold change,[3],inactive: -0.054
same,log2 fold change,[5],inactive: 0.017
same,log2 fold change,rosiglitazone,inactive: 0.107
PIK3C2A (UniProt O00443),log2 fold change,[2],inactive: 0.009
same,log2 fold change,epoxomicin,inactive: -0.169
same,log2 fold change,[3],inactive: -0.105
PIGX isoform 2 (UniProt Q8TBF5),log2 fold change,[7],inactive: 0.314
same,log2 fold change,epoxomicin,inactive: -0.007
same,log2 fold change,[3],inactive: -0.025
same,log2 fold change,[4],inactive: -0.027
same,log2 fold change,[5],inactive: -0.003
same,log2 fold change,rosiglitazone,inactive: -0.011
same,log2 fold change,[1],inactive: 0.031
same,log2 fold change,[6],inactive: 0.048
PHRF1 (UniProt Q9P1Y6),log2 fold change,volasertib,inactive: 0.373
PHETA1 isoform 4 (UniProt Q8N4B1),log2 fold change,volasertib,inactive: 0.144
same,log2 fold change,[4],inactive: 0.013
same,log2 fold change,[1],inactive: -0.147
same,log2 fold change,[6],inactive: -0.031
PGM1 isoform 2 (UniProt P36871),log2 fold change,[3],inactive: 0.383
same,log2 fold change,[1],inactive: 0.228
PICK1 (UniProt Q9NRD5),log2 fold change,[2],inactive: 0
same,log2 fold change,epoxomicin,inactive: -0.09
PIK3CG (UniProt P48736),log2 fold change,[7],inactive: 0.047
same,log2 fold change,epoxomicin,inactive: 0.02
same,log2 fold change,[3],inactive: 0.168
PKMYT1 (UniProt Q99640),log2 fold change,[7],inactive: -0.141
same,log2 fold change,epoxomicin,inactive: -0.222
same,log2 fold change,[3],inactive: -0.136
PLEKHB2 isoform 2 (UniProt Q96CS7),log2 fold change,volasertib,inactive: 0.079
same,log2 fold change,rosiglitazone,inactive: -0.027
same,log2 fold change,[1],inactive: -0.079
PFKFB1 (UniProt P16118),log2 fold change,volasertib,inactive: -0.023
same,log2 fold change,[2],inactive: 0.044
same,log2 fold change,epoxomicin,inactive: 0.056
same,log2 fold change,[4],inactive: 0.269
same,log2 fold change,rosiglitazone,inactive: 0.033
same,log2 fold change,[6],inactive: 0.195
PKLR (UniProt F8W6W2),log2 fold change,volasertib,inactive: 0.026
same,log2 fold change,[5],inactive: 0.291
same,log2 fold change,rosiglitazone,inactive: 0.385
PEX5 isoform 4 (UniProt P50542),log2 fold change,epoxomicin,inactive: 0.2
same,log2 fold change,[5],inactive: -0.017
same,log2 fold change,[1],inactive: 0.366
PLA2G4B isoform 6 (UniProt P0C869),log2 fold change,volasertib,inactive: -0.437
same,log2 fold change,[2],inactive: 0.039
same,log2 fold change,[4],inactive: 0.049
same,log2 fold change,[5],inactive: 0.023
same,log2 fold change,rosiglitazone,inactive: 0.183
same,log2 fold change,[1],inactive: -0.031
same,log2 fold change,[6],inactive: -0.05
PKNOX1 (UniProt P55347),log2 fold change,[3],inactive: -0.137
same,log2 fold change,[1],inactive: 0.004
PIAS1 isoform 2 (UniProt O75925),log2 fold change,volasertib,inactive: -0.54
same,log2 fold change,rosiglitazone,inactive: 0.1
PIMREG (UniProt Q9BSJ6),log2 fold change,[7],inactive: 0.224
same,log2 fold change,[4],inactive: -0.116
same,log2 fold change,[6],inactive: 0.118
PIM1 isoform 2 (UniProt P11309),log2 fold change,[4],inactive: -0.068
same,log2 fold change,[6],active: 2.26
